# Source: the supplement of paper PMC3334620
# Whole data set: some 33,000 sequences, median “E-score (-0.5 to 0.5)” near -0.0014, cut for the highest 2% near 0.25. Some of the results follow.
# Target: T1, Cad1 (UniProt P24813)
# T1 sequence: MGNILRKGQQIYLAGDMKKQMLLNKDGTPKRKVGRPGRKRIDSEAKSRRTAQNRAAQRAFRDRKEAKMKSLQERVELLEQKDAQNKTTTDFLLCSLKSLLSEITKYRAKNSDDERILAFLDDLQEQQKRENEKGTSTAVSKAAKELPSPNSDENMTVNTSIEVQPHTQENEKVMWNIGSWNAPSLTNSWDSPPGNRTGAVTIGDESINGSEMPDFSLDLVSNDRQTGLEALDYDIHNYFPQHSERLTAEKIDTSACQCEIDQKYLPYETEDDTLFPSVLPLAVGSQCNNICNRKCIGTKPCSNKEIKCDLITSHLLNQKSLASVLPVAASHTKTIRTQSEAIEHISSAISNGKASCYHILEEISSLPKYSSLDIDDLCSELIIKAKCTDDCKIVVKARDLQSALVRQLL
# Experiment: PBM E-score (8-mer binding enrichment) (E-score (-0.5 to 0.5)); higher = stronger / more preferred TF binding
# Details: protein concentration: 100 nM; construct: GST-full length
# Procedure, shortened: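 Universal all-10-mer Agilent arrays, double-stranded by primer extension on fresh or once-stripped slides, were probed with about 100-200 nM GST-tagged yeast transcription factors made by PURExpress. Fluorescent anti-GST detected bound protein, and masliner normalised the scans. E-scores from the Universal PBM Analysis Suite were given to each ungapped eight-base word pooled with its reverse complement.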
row,Sequence,PBM E-score
1,CAGTAGCA,-0.0805
2,AATCAGGC,0.162
3,GTTAAAGA,-0.0721
4,AGCCCGTG,-0.246
5,CACGATGA,0.105
6,AGTATGGA,0.0255
7,ACGTACGA,-0.163
8,CAGCCGTA,-0.0902
9,ATGGCGAG,-0.0096
10,ATGCTTTG,0.0882
11,AGGACCCT,-0.181
12,CGTAAAAA,0.077
13,AGACACAA,0.0583
14,GTGAATAA,0.132
15,CCTCTACC,-0.136
16,ACCTTTCT,0.0143
17,CTTGTGCC,-0.161
18,ATAAATGC,-0.0377
19,ATAATTAT,0.377
20,ATTGTATC,0.0771
21,ATCAACCG,0.119
22,CCCCAGGC,-0.346
23,ACAGAGGG,-0.202
24,ATTGGGAC,0.00101
25,ACACTGCC,0.138

row,Sequence,PBM E-score
1,CTCACGGA,-0.00122
2,CTCTCGTC,-0.133
3,CGCACATC,-0.0936
4,GAAGTGCC,0.00325
5,AATGGCCG,-0.0855
6,ATATCGTG,0.164
7,AAGGAACA,0.0112
8,GTCATCCA,0.0478
9,ATTCGGCC,-0.0167
10,GGGATTAC,0.0157
11,CTCAGAGA,0.027
12,TGGTTAAA,0.113
13,ACTTTCCA,0.0149
14,CATTTAGA,-0.0139
15,TATGCATA,-0.0368
16,AACATTGC,-0.0995
17,CCTCCCCA,-0.0358
18,AGTAACCG,0.157
19,CGTTGGAA,-0.00279
20,CAATGAAA,0.0476
21,AACTCAGC,-0.0136
22,CGTAGGGA,-0.227
23,ACGGACAG,0.0805
24,ACCATTCC,0.134
25,AACGTACC,-0.116

# Four entries drawn at random from those above:
row,Sequence,PBM E-score
11,CTCAGAGA,0.027
15,TATGCATA,-0.0368
25,AACGTACC,-0.116
21,AACTCAGC,-0.0136

# Next results follow:

row,Sequence,PBM E-score
1,AGCAAGGG,0.0404
2,GAGCCGGA,-0.114
3,AAAGAACG,0.117
4,CTTTGTAA,0.333
5,CATAGCAG,-0.18
6,GGTCGACA,0.0882
7,AGATATAG,0.209
8,AGGTCTAG,-0.254
9,ACGCGAGT,0.148
10,TGTCTGAA,0.0398
11,GATACCAC,-0.00843
12,ACGAGCTC,-0.0475
13,CACAAGAA,0.165
14,ATAGTGTA,0.0723
15,GGGATACC,-0.297
16,AAGCAAAC,0.135
17,AGGATGGG,-0.107
18,AAGCTTCT,-0.0508
19,AGTTTTCA,0.081
20,AAATCGTG,0.263
21,CTGACCTC,-0.0374
22,AGTAGTTG,0.129
23,TACCGCGA,0.172
24,GTGAAAGA,0.0393
25,CTTGTATC,0.00667

row,Sequence,PBM E-score
1,GCCGGACC,-0.145
2,ATCAGAAG,-0.0366
3,AGGCAGCG,-0.0676
4,CACCTCAC,-0.0294
5,GTAGGGCA,0.0201
6,ATCCCTTG,-0.131
7,CAAGGAAG,-0.0537
8,GAGATACC,0.0744
9,GATGTCCA,0.0451
10,TGAGTGAA,0.0265
11,AGGCGTTG,-0.0072
12,ACACCTCC,-0.0181
13,GTGGATCA,-0.047
14,ATACAATA,0.16
15,ACCCTCGC,-0.0891
16,CATGAGAG,0.0887
17,GCGGATGA,0.0552
18,ACCAATCT,0.105
19,CTGATGAC,0.123
20,CAGATTCC,-0.0427
21,CCGTTAGC,0.0174
22,CGCTAATC,0.113
23,AACCTCCC,-0.194
24,CGGTGATA,0.125
25,GGAATTTA,0.167

row,Sequence,PBM E-score
1,AAGCAACT,0.136
2,CTATCGCC,-0.128
3,AAAAAACG,0.241
4,CGCTTCAG,-0.0196
5,CGAGGTAG,-0.125
6,AACCTGAG,-0.261
7,CTCAACGC,-0.0802
8,AAATGACG,0.0367
9,GCACCTCA,0.0626
10,CATCTTAA,-0.0291
11,AAGGGAGG,-0.154
12,AAGGCGGA,-0.0482
13,CGTCGACG,0.103
14,GTAGTTGA,0.0726
15,ACAACCCA,0.0591
16,AGTGCATC,-0.0329
17,ATGATGAG,0.0176
18,CAGCACGC,0.0316
19,CGCACCCA,-0.105
20,GTCTACTA,-0.0066
21,ACAACGGC,0.0114
22,CCAGGATA,0.0619
23,CATGCGGA,-0.13
24,ACACACAG,0.066
25,AGTGCACC,0.148

# Given with tabs: entries from further up
row	Sequence	PBM E-score
2	AATCAGGC	0.162
4	AGCCCGTG	-0.246
5	CACGATGA	0.105
14	GTGAATAA	0.132
16	CATGAGAG	0.0887

# Remaining list, next part.

row,Sequence,PBM E-score
1,ACGTTATA,0.216
2,ACGGCGCA,0.0369
3,CGAAAGAC,0.00341
4,GGTGTAAC,0.0874
5,ATCCCACA,-0.136
6,ATTCAGCC,-0.121
7,ACGGGGTC,-0.243
8,CTTTTACA,0.159
9,CATTAGTC,0.217
10,ACCGTTGG,-0.166
11,ACATGAGG,-0.229
12,GAATATGA,0.00944
13,AGGGTCTA,-0.0909
14,GCAGGCCA,0.125
15,ATGCACGG,-0.0947
16,CCCACGGC,-0.117
17,CCCAAACG,-0.182
18,GAAAGAGC,-0.0569
19,GGCGCTCA,0.149
20,CTAACAGA,0.129
21,CACCCGAG,0.00242
22,ACTTGGCT,-0.0387
23,AGCTATTC,-0.215
24,ACAACAAT,0.0253
25,ATGCAGTC,0.0484

row,Sequence,PBM E-score
1,GATCTCCC,-0.121
2,CCCAAGAG,-0.132
3,AGGGCACC,-0.257
4,AGAAGCCG,0.0307
5,AGCTCCTG,-0.254
6,AATAAAGG,-0.164
7,TGAGTTAA,-0.0473
8,GGTGAAAA,0.0946
9,CGCAGAGA,0.0335
10,AATAAATA,0.313
11,GTGGTGTA,-0.0273
12,AGCGACTC,-0.00582
13,GCTAGTCA,-0.0828
14,CAAAATAG,-0.0227
15,AGCATGGA,-0.216
16,AGCGACAG,0.0726
17,TGAATACA,0.0483
18,CATCAAGA,0.0115
19,AACGTAAC,-0.00693
20,AAAAGTCT,-0.0292
21,CAGGGCAA,0.11
22,AGTCAACA,0.136
